For at least one compound, name, drawing or mass did not settle the structure.
System: primary chicken neurons
Assay: MTT cell viability assay on primary chicken neurons, components applied for forty-eight hours
Format: cell-based
Details: 48 h
Procedure: Further tests were conducted to assess the neuroprotective effects of a number of the components previously disclosed herein at various concentrations on primary chicken neurons, individually and in select combinations. The study components were applied to test specimens obtained on embryonic day 8 in vitro (“DIV8”) for a period of forty-eight hours, after which, the test specimens were evaluated in accordance with MTT assay to determine cell viability.
One day old fertilized eggs were stored under appropriate conditions until the start of breeding. On embryonic day zero, eggs were transferred to a breeding incubator and maintained under turning at 37.8° C. and 55% humidity until embryonic day eight. […]
The study component(s) and vehicle controls (“VC”) were applied to chicken neurons at DIVE for forty-eight hours. The viability of the chicken neurons at DIV10 were determined according to an MTT cell viability assay.
MTT Cell Viability Assay: The viability of the chicken neurons were determined by MTT assay using a plate reader at 570 nanometers as described in SOP MET004. […] Optical density is measured with a plate-reader at a wavelength of 570 nanometers.
Cell survival rate is expressed as optical density, and values are calculated as a percentage of the vehicle control values, the vehicle control being 100%.

With `CC/C=C\C/C=C\C/C=C\C/C=C\C/C=C\C/C=C\CCC(=O)O` [DHA, Docosahexaenoic acid] the “effect on cell viability” value (DHA 200 and 100 μM) was “negative effects on cell viability” and the “effect on cell viability” value (DHA, other applied concentrations) was “no significant influence”.

Source: patent publication US10166267B1, “Multi-component formulations for the treatment of cognitive decline including Alzheimer's disease” (priority 2010, dated 2019)
